From the supplement of paper PMC6078165
± gives the standard deviation of the averaged measurements. The reference is the same well before dosing, and untreated signal decays as well.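 Labels refer to human fibroblasts, largely primary: uterine (C12385, HUF), lung (H6013), bone (Hs27A), adrenal (HADF), skin (WS1), plus mammary HMF and breast cancer-associated Hs343T. Cancer lines are basal-like or mesenchymal-like triple-negative breast cancer. The paper counts as hits responses shifting over 3x the replicate standard deviation. The tissue of the other fibroblasts is not given here.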

Tested on: HCC1143
Assay: relative JC-1 red fluorescence (viability) vs pre-drug, coculture with fibroblast (fraction); higher = more viable cancer cells
Method: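 JC-1 labelled TNBC cells cocultured 1:1 (1,500 cells each) with CellTrace Violet stained primary or stromal fibroblasts in 384-well plates in FluoroBrite medium, treated with one of 42 anticancer drugs at 0.1, 1, 10 or 100 uM. JC-1 red fluorescence (mitochondrial integrity in cancer cells only) was read by plate reader every 8 h for 72 h. Values are normalised to each well's pre-drug value. The stock of one drug was tenfold lower, so its dose labels may be too high.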

CC[C@]1(O)C[C@@H]2CN(CCc3c([nH]c4ccccc34)[C@@](C(=O)OC)(c3cc4c(cc3OC)N(C)[C@H]3[C@@](O)(C(=O)OC)[C@H](OC(C)=O)[C@]5(CC)C=CCN6CC[C@]43[C@@H]65)C2)C1 [Vinblastine]
relative JC-1 red fluorescence
Conditions	8 h	16 h	24 h	32 h	40 h	48 h	56 h	64 h	72 h
1 µM, coculture fibroblast: WS1	–	–	–	–	–	–	–	–	0.506 ± 0.009
10 µM, coculture fibroblast: C12385	0.857 ± 0.011	0.812 ± 0.037	0.773 ± 0.046	0.72 ± 0.051	0.677 ± 0.05	0.637 ± 0.029	0.612 ± 0.023	0.577 ± 0.013	0.56 ± 0.016
10 µM, coculture fibroblast: H6013	0.722 ± 0.012	0.681 ± 0.032	0.659 ± 0.023	0.672 ± 0.0079	0.594 ± 0.015	0.582 ± 0.021	0.561 ± 0.017	0.544 ± 0.0095	0.5619 ± 0.0028
10 µM, coculture fibroblast: H6019	0.85 ± 0.017	0.795 ± 0.01	0.7623 ± 0.005	0.713 ± 0.0092	0.694 ± 0.016	0.6755 ± 0.0027	0.636 ± 0.013	0.6122 ± 0.0037	0.591 ± 0.01
10 µM, coculture fibroblast: H6076	0.7698 ± 0.0015	0.849 ± 0.04	0.812 ± 0.021	0.7109 ± 0.007	0.723 ± 0.027	0.689 ± 0.022	0.652 ± 0.016	0.62 ± 0.019	0.6074 ± 0.0058
10 µM, coculture fibroblast: H6231	0.816 ± 0.024	0.931 ± 0.03	0.868 ± 0.027	0.63 ± 0.026	0.777 ± 0.02	0.734 ± 0.022	0.709 ± 0.034	0.67 ± 0.02	0.632 ± 0.027
10 µM, coculture fibroblast: HADF	0.72138 ± 0.0006	0.6736 ± 0.0016	0.639 ± 0.012	0.6609 ± 0.0015	0.543 ± 0.015	0.512 ± 0.0075	0.4885 ± 0.0023	0.471 ± 0.0059	0.543 ± 0.014
10 µM, coculture fibroblast: HCFa	0.738 ± 0.019	0.671 ± 0.033	0.642 ± 0.032	0.649 ± 0.035	0.566 ± 0.026	0.539 ± 0.016	0.516 ± 0.025	0.494 ± 0.017	0.544 ± 0.051
10 µM, coculture fibroblast: HCPF	0.792 ± 0.026	0.782 ± 0.0099	0.739 ± 0.015	0.634 ± 0.017	0.659 ± 0.023	0.622 ± 0.021	0.591 ± 0.019	0.566 ± 0.02	0.563 ± 0.04
10 µM, coculture fibroblast: HHSteC	0.795 ± 0.012	0.75 ± 0.024	0.721 ± 0.022	0.709 ± 0.021	0.629 ± 0.021	0.604 ± 0.023	0.575 ± 0.021	0.559 ± 0.013	0.571 ± 0.011
10 µM, coculture fibroblast: HMF	0.782 ± 0.01	0.8248 ± 0.0032	0.775 ± 0.013	0.6782 ± 0.0051	0.713 ± 0.025	0.674 ± 0.029	0.648 ± 0.017	0.602 ± 0.02	0.573 ± 0.018
10 µM, coculture fibroblast: HPFa	0.924 ± 0.0048	0.885 ± 0.013	–	0.7643 ± 0.0062	0.7333 ± 0.0044	0.707 ± 0.0078	0.661 ± 0.025	0.6251 ± 0.0031	0.607 ± 0.0072
10 µM, coculture fibroblast: HUF	0.902 ± 0.013	0.851 ± 0.016	0.832 ± 0.047	0.776 ± 0.056	0.74 ± 0.066	0.705 ± 0.055	0.668 ± 0.067	0.642 ± 0.069	0.62 ± 0.079
10 µM, coculture fibroblast: Hs5	0.7874 ± 0.0055	0.788 ± 0.043	0.755 ± 0.038	0.717 ± 0.0089	0.664 ± 0.025	0.635 ± 0.015	0.614 ± 0.012	0.597 ± 0.02	0.5974 ± 0.0049
10 µM, coculture fibroblast: Hs27A	0.672 ± 0.0043	0.601 ± 0.013	0.561 ± 0.01	0.603 ± 0.0063	0.464 ± 0.011	0.428 ± 0.02	0.411 ± 0.024	0.395 ± 0.023	0.499 ± 0.0052
10 µM, coculture fibroblast: Hs343T	0.84 ± 0.024	0.947 ± 0.013	0.916 ± 0.017	0.803 ± 0.09	0.87 ± 0.072	0.832 ± 0.083	0.781 ± 0.11	0.78 ± 0.12	0.732 ± 0.14
10 µM, coculture fibroblast: WS1	0.8329 ± 0.004	0.76551 ± 0.00072	0.7227 ± 0.0048	0.657 ± 0.009	0.608 ± 0.011	0.575 ± 0.028	0.539 ± 0.038	0.509 ± 0.037	0.486 ± 0.032
100 µM, coculture fibroblast: C12385	0.65 ± 0.015	0.5163 ± 0.0034	0.389 ± 0.0064	0.277 ± 0.038	0.174 ± 0.033	0.142 ± 0.037	0.109 ± 0.044	0.079 ± 0.04	0.0599 ± 0.04
100 µM, coculture fibroblast: H6013	0.563 ± 0.034	0.437 ± 0.055	0.336 ± 0.041	0.223 ± 0.05	0.135 ± 0.048	0.116 ± 0.048	0.0793 ± 0.037	0.0539 ± 0.033	0.0264 ± 0.0044
100 µM, coculture fibroblast: H6019	0.813 ± 0.15	0.677 ± 0.19	0.569 ± 0.17	0.417 ± 0.14	0.296 ± 0.096	0.227 ± 0.067	0.159 ± 0.051	0.103 ± 0.056	0.0765 ± 0.052
100 µM, coculture fibroblast: H6076	0.664 ± 0.025	0.637 ± 0.076	0.588 ± 0.074	0.516 ± 0.05	0.393 ± 0.048	0.322 ± 0.02	0.247 ± 0.0036	0.195 ± 0.0021	0.177 ± 0.0084
100 µM, coculture fibroblast: H6231	0.66 ± 0.015	0.626 ± 0.059	0.524 ± 0.16	0.456 ± 0.16	0.412 ± 0.26	0.32 ± 0.22	0.226 ± 0.18	0.173 ± 0.16	0.141 ± 0.14
100 µM, coculture fibroblast: HADF	0.567 ± 0.02	0.458 ± 0.0098	0.3804 ± 0.00049	0.284 ± 0.0041	0.135 ± 0.014	0.0968 ± 0.016	0.0515 ± 0.014	0.0275 ± 0.013	0.015 ± 0.012
100 µM, coculture fibroblast: HCFa	0.652 ± 0.016	0.523 ± 0.0089	0.445 ± 0.012	0.352 ± 0.043	0.24 ± 0.096	0.199 ± 0.1	0.141 ± 0.099	0.108 ± 0.099	0.0624 ± 0.067
100 µM, coculture fibroblast: HCPF	0.702 ± 0.033	0.699 ± 0.089	0.617 ± 0.024	0.501 ± 0.0063	0.432 ± 0.056	0.361 ± 0.042	0.279 ± 0.042	0.224 ± 0.031	0.186 ± 0.01
100 µM, coculture fibroblast: HHSteC	0.748 ± 0.055	0.647 ± 0.068	0.562 ± 0.041	0.456 ± 0.043	0.288 ± 0.0093	0.23 ± 0.012	0.155 ± 0.01	0.119 ± 0.0046	0.0604 ± 0.0031
100 µM, coculture fibroblast: HMF	0.691 ± 0.035	0.712 ± 0.019	0.678 ± 0.016	0.597 ± 0.034	0.4828 ± 0.0035	0.381 ± 0.013	0.262 ± 0.052	0.199 ± 0.062	0.159 ± 0.07
100 µM, coculture fibroblast: HPFa	0.687 ± 0.033	0.547 ± 0.02	0.433 ± 0.021	0.297 ± 0.0047	0.205 ± 0.007	0.1732 ± 0.0014	0.12755 ± 0.0001	0.107 ± 0.0063	0.08637 ± 0.00015
100 µM, coculture fibroblast: HUF	0.763 ± 0.062	0.548 ± 0.26	0.41 ± 0.32	0.318 ± 0.3	0.249 ± 0.26	0.198 ± 0.22	0.131 ± 0.16	0.0947 ± 0.13	0.0953 ± 0.097
100 µM, coculture fibroblast: Hs5	0.6986 ± 0.0039	0.681 ± 0.048	0.561 ± 0.07	0.461 ± 0.062	0.322 ± 0.053	0.26 ± 0.034	0.213 ± 0.035	0.169 ± 0.032	0.143 ± 0.034
100 µM, coculture fibroblast: Hs27A	0.526 ± 0.035	0.455 ± 0.03	0.378 ± 0.0093	0.335 ± 0.018	0.231 ± 0.03	0.227 ± 0.045	0.177 ± 0.041	0.149 ± 0.039	0.0812 ± 0.033
100 µM, coculture fibroblast: Hs343T	0.73 ± 0.012	0.72 ± 0.019	0.633 ± 0.064	0.57 ± 0.1	0.459 ± 0.099	0.385 ± 0.12	0.273 ± 0.083	0.215 ± 0.071	0.17 ± 0.071
100 µM, coculture fibroblast: WS1	0.676 ± 0.027	0.523 ± 0.074	0.381 ± 0.084	0.274 ± 0.072	0.193 ± 0.073	0.154 ± 0.082	0.114 ± 0.085	0.0896 ± 0.081	0.0694 ± 0.08
